Data taken from PubChem BioAssay AID1159506, deposited by NCATS (2015).

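Genome-wide siRNA knockdown in TC32 Ewing sarcoma cells, comparing luciferase light from an NR0B1-promoter reporter with a CMV-promoter reporter 48 hours after transfection. Each siRNA was applied at 20 nM. A z-score of the log NR0B1-over-CMV signal, less the median of siRNAs with the same seed; more negative means a stronger specific loss of the NR0B1 reporter.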

The strongest results of the screen are mostly left out here. Sequences are the guide (antisense) strand, without overhang.

For UCGGUACUUAGAGUACUUC against KBTBD12 the result was seed-corrected z-score 0.1917.
For UCCUUUAAAUCUGACAAGG against FERMT1 the result was seed-corrected z-score -0.02764.
For UUUAAGACCAGGCAGUCGU against ADAP2 the result was seed-corrected z-score 0.1469.
For UAAUCAAUGAGACAUCCUC against BRE the result was seed-corrected z-score 0.1502.
For UUCCUGAUAACUCCUCUCC against GBP1 the result was seed-corrected z-score 0.06359.
For UUUCUUACGCUCUGACUUC against GNA15 the result was seed-corrected z-score 0.02002.
For UGUUCGACCCAGUACAGCC against F2RL3 the result was seed-corrected z-score 0.3789.
For UGACUUCUCACGCACAUUG against EPN2 the result was seed-corrected z-score 0.3094.
For UAGUGUUUCGGAUCUUCAG against CD83 the result was seed-corrected z-score 1.735.
For UGUAGGUAAACUCCUCUGC against HAGH the result was seed-corrected z-score 1.232.
For UUCAUGUAUAUUAGGAUCC against IL18R1 the result was seed-corrected z-score 0.01547.
For UAAACGUACAAAAUCUAUG against ABCA13 the result was seed-corrected z-score -0.1218.
For UCUGAGUCGAUUCGGAUGC against CNPY2 the result was seed-corrected z-score 1.257.
For UUGGUAGUCUCUCAAAUAC against ERCC6L2 the result was seed-corrected z-score 0.4195.
For UUUAUUCUGUAUGUUUUGG against KIAA0825 the result was seed-corrected z-score -0.2245.
For UCGUGUUCGCAGUACUUCC against LIMS2 the result was seed-corrected z-score 0.02675.
For UUAAUUCGGAACGAGAUGC against RYR2 the result was seed-corrected z-score 0.005625.
For UGGAUUUGCAGAUAGAGUG against ACSM6 the result was seed-corrected z-score 1.436.
For AAAGUAGACACUGGAGAUC against LOC730222 the result was seed-corrected z-score -1.865.
For UCUAUUGCUGCAUUCUUCC against STBD1 the result was seed-corrected z-score 0.1432.
For UUUACGUCUGCAGUUAACG against KIF18A the result was seed-corrected z-score -0.6127.
For AUAUUUCUCACGUCAGCUC against B3GNT3 the result was seed-corrected z-score 0.4082.
For UACAGUGUCUUGUCCCAGC against MRPS12 the result was seed-corrected z-score 0.4178.
For ACAGUAUGGACUGUCAUCC against FHL5 the result was seed-corrected z-score -0.8934.
For UGUGAUGCGUUUCAGAUCC against IZUMO1 the result was seed-corrected z-score -0.8931.
For UUCAUCUCUGUCGUAGAUC against CRYGB the result was seed-corrected z-score -0.5608.
For AGCAGGUAGAUGGCAAUGG against SCO2 the result was seed-corrected z-score -0.01886.
For UUUGUUUGGUAGCAUAACC against DUXA the result was seed-corrected z-score 0.1172.
For UAGUCGCUCCACACCUUGC against ZG16 the result was seed-corrected z-score 0.1773.
For UAACUUUUGAACUUACAGC against CHMP2B the result was seed-corrected z-score 0.5825.
For UUCCGUUUAACGACACCAG against RGMB-AS1 the result was seed-corrected z-score -0.5595.
For UCUGGUAUUGUAGACAUAG against KLHDC4 the result was seed-corrected z-score 0.1203.
For AAUUGAAGUAGGAAGCUGC against ATG12 the result was seed-corrected z-score -0.5268.
For UGCUUAAUCGGUACAGCUG against MEP1A the result was seed-corrected z-score -0.6024.
For AAGAUUCUAGAAUACUGCG against LOC643997 the result was seed-corrected z-score -0.4342.
For UUUUUGUCGCGGUGACACG against RARG the result was seed-corrected z-score -0.2627.
For UCUCCAUCCAUGGAUGUCU against IGFBP1 the result was seed-corrected z-score -0.1279.
For UUCUUGCCCAUGAAGUGAC against NMB the result was seed-corrected z-score -0.6701.
For AUAGUUGACAUUCUUAUUG against ATG10 the result was seed-corrected z-score 0.9915.
For ACAGUUUGCAGAUAGGAGC against SLC2A6 the result was seed-corrected z-score 0.01822.
For UAUGUCAGCAUUCACUUUG against NSDHL the result was seed-corrected z-score -1.438.
For UUUGAUGAGUGGAAAGCCG against MICALL1 the result was seed-corrected z-score -0.8214.
For UAAAGAUUUUAUGUCUUCG against TRMT61B the result was seed-corrected z-score 0.03264.
For UAUUGUUCGCAUAUGCUCC against RAB28 the result was seed-corrected z-score -0.3631.

Some entries from above, unchanged:

For UCGUGUUCGCAGUACUUCC against LIMS2 the result was seed-corrected z-score 0.02675.
For UUCAUCUCUGUCGUAGAUC against CRYGB the result was seed-corrected z-score -0.5608.